From article PMC8138007
These are yes or no findings as the source states them, for the method shown. In cells and extracts the contact can be indirect. Here binding means that the protein was enriched with, or labelled near, the bait; the list need not be complete.

By UniProt entry, the sequences of proteins in these tests, tags left out.
UniProt P14618: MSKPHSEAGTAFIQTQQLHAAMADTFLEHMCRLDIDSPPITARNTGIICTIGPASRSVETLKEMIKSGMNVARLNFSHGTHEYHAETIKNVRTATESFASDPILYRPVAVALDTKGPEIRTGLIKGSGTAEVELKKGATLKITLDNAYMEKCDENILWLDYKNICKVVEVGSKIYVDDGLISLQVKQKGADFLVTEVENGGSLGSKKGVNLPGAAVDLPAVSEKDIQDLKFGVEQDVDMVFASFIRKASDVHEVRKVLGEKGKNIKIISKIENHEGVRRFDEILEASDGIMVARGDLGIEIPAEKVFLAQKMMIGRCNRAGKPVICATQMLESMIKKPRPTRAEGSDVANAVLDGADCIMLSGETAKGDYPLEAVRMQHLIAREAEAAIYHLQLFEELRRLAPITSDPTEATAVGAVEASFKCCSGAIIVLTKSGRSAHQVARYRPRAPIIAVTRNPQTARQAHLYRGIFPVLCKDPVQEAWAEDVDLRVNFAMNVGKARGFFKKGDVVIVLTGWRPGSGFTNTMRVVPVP

Molecular target: T1, Testes-specific protease 50 (TSP50), endogenous (human (endogenous in Huh7 and Bel7402)) (UniProt Q9UI38)
T1 sequence: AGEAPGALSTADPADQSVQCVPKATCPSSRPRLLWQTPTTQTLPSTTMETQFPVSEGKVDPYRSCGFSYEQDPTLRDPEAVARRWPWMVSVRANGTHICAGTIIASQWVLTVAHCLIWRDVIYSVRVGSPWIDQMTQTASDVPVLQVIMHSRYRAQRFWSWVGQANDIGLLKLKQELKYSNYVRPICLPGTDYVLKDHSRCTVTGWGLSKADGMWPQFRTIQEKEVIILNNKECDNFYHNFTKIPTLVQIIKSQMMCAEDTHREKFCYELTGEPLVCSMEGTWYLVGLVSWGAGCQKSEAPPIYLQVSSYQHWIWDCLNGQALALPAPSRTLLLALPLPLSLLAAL
Experiment: affinity purification with mass spectrometry; proteins binding to endogenous TSP50 in Huh7 cells identified by LC-MS/MS; 50 kDa gel bands excised after SDS-PAGE; non-specific proteins removed

## Pyruvate kinase M2 isoform (PKM2), endogenous (from UniProt P14618 1-531) (enzyme)
  binding: binds
